Structures are written as SMILES. Further values from the same series stand in other lists.

Amino acid sequences for entries named in this document (tags omitted).
UniProt Q61188, whole entry: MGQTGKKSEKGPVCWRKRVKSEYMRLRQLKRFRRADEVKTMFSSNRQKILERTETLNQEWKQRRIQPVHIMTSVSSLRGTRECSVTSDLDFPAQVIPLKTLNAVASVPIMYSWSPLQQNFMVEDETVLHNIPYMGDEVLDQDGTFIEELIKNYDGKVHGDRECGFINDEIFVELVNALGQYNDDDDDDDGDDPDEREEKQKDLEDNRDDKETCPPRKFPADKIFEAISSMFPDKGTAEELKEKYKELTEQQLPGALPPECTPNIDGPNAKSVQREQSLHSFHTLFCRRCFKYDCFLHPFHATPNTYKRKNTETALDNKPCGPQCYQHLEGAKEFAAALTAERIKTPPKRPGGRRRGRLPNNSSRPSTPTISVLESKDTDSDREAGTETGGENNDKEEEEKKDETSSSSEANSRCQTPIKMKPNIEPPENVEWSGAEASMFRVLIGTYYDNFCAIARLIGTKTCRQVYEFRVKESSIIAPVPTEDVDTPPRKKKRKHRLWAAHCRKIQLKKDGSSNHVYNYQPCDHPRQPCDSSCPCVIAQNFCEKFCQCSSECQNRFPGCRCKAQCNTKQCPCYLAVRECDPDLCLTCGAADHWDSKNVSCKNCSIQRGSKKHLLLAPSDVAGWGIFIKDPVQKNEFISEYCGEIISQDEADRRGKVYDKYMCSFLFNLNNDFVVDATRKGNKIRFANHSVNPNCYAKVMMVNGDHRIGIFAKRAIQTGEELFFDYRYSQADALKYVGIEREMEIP

What all share (type): cell-based
The target in assay [1] is T1, RNA polymerase II (Mus musculus) (UniProt P08775+Q8CFI7+P97760+A0A3Q4L2S8+Q80UW8+P61219+P62488+Q923G2+P60898+O08740+Q63871+P62876). In words: Inhibition of RNA polymerase II in mouse B16-F1 migrating cells assessed as fold change in Avpi1-RNA stability at 0.1 mM measured by ChIP-seq analysis relative to control cells.
The target in assay [2] is T1, RNA polymerase II (Mus musculus). In words: Inhibition of RNA polymerase II in mouse B16-F1 migrating cells assessed as fold change in Rplp2-RNA stability at 0.1 mM measured by ChIP-seq analysis relative to control cells.
For assay [3] the target is unchanged. In words: Inhibition of RNA polymerase II in mouse B16-F1 migrating cells assessed as fold change in Ak4-RNA stability at 0.1 mM measured by ChIP-seq analysis relative to control cells.
The target is the same in assay [4]. In words: Inhibition of RNA polymerase II in mouse B16-F1 migrating cells assessed as fold change in Slc35c2-RNA stability at 0.1 mM measured by ChIP-seq analysis relative to control cells.
Assay [5] has the same target. In words: Inhibition of RNA polymerase II in mouse B16-F1 migrating cells assessed as fold change in Mea1-RNA stability at 0.1 mM measured by ChIP-seq analysis relative to control cells.
The target is the same in assay [6]. In words: Inhibition of RNA polymerase II in mouse B16-F1 migrating cells assessed as fold change in Plpp5-RNA stability at 0.1 mM measured by ChIP-seq analysis relative to control cells.
For assay [7] the target is unchanged. In words: Inhibition of RNA polymerase II in mouse B16-F1 migrating cells assessed as fold change in Arhgdia-RNA stability at 0.1 mM measured by ChIP-seq analysis relative to control cells.
The target is the same in assay [8]. In words: Inhibition of RNA polymerase II in mouse B16-F1 migrating cells assessed as fold change in Timm13-RNA stability at 0.1 mM measured by ChIP-seq analysis relative to control cells.
Assay [9] has the same target. In words: Inhibition of RNA polymerase II in mouse B16-F1 migrating cells assessed as fold change in Mrpl23-RNA stability at 0.1 mM measured by ChIP-seq analysis relative to control cells.
For assay [10] the target is unchanged. In words: Inhibition of RNA polymerase II in mouse B16-F1 migrating cells assessed as fold change in Rps10-RNA stability at 0.1 mM measured by ChIP-seq analysis relative to control cells.
The target is the same in assay [11]. In words: Inhibition of RNA polymerase II in mouse B16-F1 migrating cells assessed as fold change in Dnajc10-RNA stability at 0.1 mM measured by ChIP-seq analysis relative to control cells.
For assay [12] the target is unchanged. In words: Inhibition of RNA polymerase II in mouse B16-F1 migrating cells assessed as fold change in Spcs3-RNA stability at 0.1 mM measured by ChIP-seq analysis relative to control cells.
The target is the same in assay [13]. In words: Inhibition of RNA polymerase II in mouse B16-F1 migrating cells assessed as fold change in Gtpbp4-RNA stability at 0.1 mM measured by ChIP-seq analysis relative to control cells.
Assay [14] has the same target. In words: Inhibition of RNA polymerase II in mouse B16-F1 migrating cells assessed as fold change in Slc25a40-RNA stability at 0.1 mM measured by ChIP-seq analysis relative to control cells.
The target is the same in assay [15]. In words: Inhibition of RNA polymerase II in mouse B16-F1 migrating cells assessed as fold change in Uxs1-RNA stability at 0.1 mM measured by ChIP-seq analysis relative to control cells.
For assay [16] the target is unchanged. In words: Inhibition of RNA polymerase II in mouse B16-F1 migrating cells assessed as fold change in Tmf1-RNA stability at 0.1 mM measured by ChIP-seq analysis relative to control cells.
Assay [17] shares this target. In words: Inhibition of RNA polymerase II in mouse B16-F1 migrating cells assessed as fold change in Atp11c-RNA stability at 0.1 mM measured by ChIP-seq analysis relative to control cells.
The target is the same in assay [18]. In words: Inhibition of RNA polymerase II in mouse B16-F1 migrating cells assessed as fold change in Ift74-RNA stability at 0.1 mM measured by ChIP-seq analysis relative to control cells.
Assay [19] deals with Histone-lysine N-methyltransferase EZH2 (Mus musculus) (UniProt Q61188). In words: Inhibition of EZH2 in mouse B16-F1 migrating cells assessed as fold change in H3K27me3-independent regulated Isg20-mRNA expression at 3 uM measured by ChIP-seq analysis relative to control cells.
For assay [20] the target is unchanged. In words: Inhibition of EZH2 in mouse B16-F1 migrating cells assessed as fold change in H3K27me3-independent regulated Esco2-mRNA expression at 3 uM measured by ChIP-seq analysis relative to control cells.
For assay [21] the target is unchanged. In words: Inhibition of EZH2 in mouse B16-F1 migrating cells assessed as fold change in H3K27me3-independent regulated D130058E05Rik-mRNA expression at 3 uM measured by ChIP-seq analysis relative to control cells.
Assay [22] has the same target. In words: Inhibition of EZH2 in mouse B16-F1 migrating cells assessed as fold change in H3K27me3-independent regulated Ak4-mRNA expression at 3 uM measured by ChIP-seq analysis relative to control cells.
For assay [23] the target is unchanged. In words: Inhibition of EZH2 in mouse B16-F1 migrating cells assessed as fold change in H3K27me3-buffered regulated Mapk8ip1-mRNA expression at 3 uM measured by ChIP-seq analysis relative to control cells.
Assay [24] has the same target. In words: Inhibition of EZH2 in mouse B16-F1 migrating cells assessed as fold change in H3K27me3-buffered regulated Upf3b-mRNA expression at 3 uM measured by ChIP-seq analysis relative to control cells.
Assay [25] shares this target. In words: Inhibition of EZH2 in mouse B16-F1 migrating cells assessed as fold change in H3K27me3-buffered regulated Tfap4-mRNA expression at 3 uM measured by ChIP-seq analysis relative to control cells.
Assay [26] has the same target. In words: Inhibition of EZH2 in mouse B16-F1 migrating cells assessed as fold change in H3K27me3-buffered regulated Plxnb1-mRNA expression at 3 uM measured by ChIP-seq analysis relative to control cells.
For assay [27] the target is unchanged. In words: Inhibition of EZH2 in mouse B16-F1 migrating cells assessed as fold change in H3K27me3-buffered regulated E4f1-mRNA expression at 3 uM measured by ChIP-seq analysis relative to control cells.
The target is the same in assay [28]. In words: Inhibition of EZH2 in mouse B16-F1 migrating cells assessed as fold change in H3K27me3-buffered regulated Nsl1-mRNA expression at 3 uM measured by ChIP-seq analysis relative to control cells.
Assay [29] has the same target. In words: Inhibition of EZH2 in mouse B16-F1 migrating cells assessed as fold change in H3K27me3-buffered regulated Slc2a4-mRNA expression at 3 uM measured by ChIP-seq analysis relative to control cells.
The target is the same in assay [30]. In words: Inhibition of EZH2 in mouse B16-F1 migrating cells assessed as fold change in H3K27me3-buffered regulated Enox1-mRNA expression at 3 uM measured by ChIP-seq analysis relative to control cells.

Take `OC[C@H]1O[C@@H](n2cnc3cc(Cl)c(Cl)cc32)[C@H](O)[C@@H]1O`: the log2FC amounted to 0.62 in assay [1]; 0.55 in assay [2]; 0.54 in assay [3]; 0.52 in assay [4]; 0.49 in assay [5]; 0.46 in assay [6]. Moreover, the log2FC was 0.45 in [7]; 0.45 in assay [8]; 0.44 in assay [9]; 0.4 in assay [10]; -0.4 in assay [11]; -0.47 in assay [12]. The log2FC in [13] was -0.5; in assay [14] it was -0.63; in [15], -0.66; in assay [16], -0.71; in assay [17], -0.8; in assay [18], -0.96.

Consider `CCCc1cc(C)[nH]c(=O)c1CNC(=O)c1cc(-c2ccnc(N3CCN(C)CC3)c2)cc2c1cnn2C(C)C`, for which the log2FC in assay [19] is 0.96; in assay [20], -0.54; in assay [21], -0.76; in assay [22], -0.92; in assay [23], 0.38; in assay [24], -0.4. Further, the log2FC is -0.46 in assay [25]; -0.47 in assay [26]; -0.5 in [27]; -0.51 in [28]; -0.83 in assay [29]; -0.84 in assay [30].

(Values after ChEMBL document CHEMBL5674883, “The Heterochromatin Landscape in Migrating Cells and the Importance of H3K27me3 for Associated Transcriptome Alterations” (Cells, 2018).)
